Results are given in words; binding and its absence hold for the method and conditions named. For part of these data: A result given as binding can be weak or reduced; the word gives no strength.
Key:
[1] = molecular target: T1, Wdr26 (102–641) (mouse) (UniProt Q8C6G8); assay: SEC; analytical SEC, Superose 6 increase 10/300 GL; proteins at 30 μM, 1:1 molar ratio, 30 min on ice; both purified
T1 sequence: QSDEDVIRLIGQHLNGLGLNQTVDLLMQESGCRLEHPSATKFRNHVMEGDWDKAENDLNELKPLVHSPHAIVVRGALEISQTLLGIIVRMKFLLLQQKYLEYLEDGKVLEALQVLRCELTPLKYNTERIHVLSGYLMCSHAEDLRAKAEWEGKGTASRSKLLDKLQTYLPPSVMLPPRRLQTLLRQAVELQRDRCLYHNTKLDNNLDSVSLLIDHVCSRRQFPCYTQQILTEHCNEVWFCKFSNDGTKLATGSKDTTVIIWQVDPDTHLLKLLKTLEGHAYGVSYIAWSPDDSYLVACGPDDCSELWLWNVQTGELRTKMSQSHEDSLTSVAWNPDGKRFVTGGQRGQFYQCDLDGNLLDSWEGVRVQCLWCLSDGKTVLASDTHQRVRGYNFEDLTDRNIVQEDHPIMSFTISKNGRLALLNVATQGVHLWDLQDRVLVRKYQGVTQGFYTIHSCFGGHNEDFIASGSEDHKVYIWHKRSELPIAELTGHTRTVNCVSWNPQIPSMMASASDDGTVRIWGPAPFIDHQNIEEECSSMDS

Chains of the proteins cited; added tags and fusions are not shown. Lines headed by an entry give the natural chain unless they say otherwise; changes in a name come on top. A line that says so, or that is headed by a name, gives the form on record, which may keep a tag or linker.
UniProt Q6VN19: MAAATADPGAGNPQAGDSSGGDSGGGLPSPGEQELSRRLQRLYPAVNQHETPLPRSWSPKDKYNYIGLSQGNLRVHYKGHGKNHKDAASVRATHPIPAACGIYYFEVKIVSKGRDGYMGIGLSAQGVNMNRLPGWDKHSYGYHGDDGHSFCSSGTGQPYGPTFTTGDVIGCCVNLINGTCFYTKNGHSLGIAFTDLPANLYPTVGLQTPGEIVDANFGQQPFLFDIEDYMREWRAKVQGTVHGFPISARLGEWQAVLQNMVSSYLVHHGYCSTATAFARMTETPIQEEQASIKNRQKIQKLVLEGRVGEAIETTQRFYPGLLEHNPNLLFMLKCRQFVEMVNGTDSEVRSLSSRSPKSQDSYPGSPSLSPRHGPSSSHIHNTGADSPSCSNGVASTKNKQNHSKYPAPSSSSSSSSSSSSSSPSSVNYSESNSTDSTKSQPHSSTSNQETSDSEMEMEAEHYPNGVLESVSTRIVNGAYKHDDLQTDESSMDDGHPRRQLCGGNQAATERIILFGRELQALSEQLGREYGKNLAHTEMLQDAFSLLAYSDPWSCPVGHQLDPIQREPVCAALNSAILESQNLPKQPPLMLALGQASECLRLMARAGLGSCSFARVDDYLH
UniProt Q9D7M1: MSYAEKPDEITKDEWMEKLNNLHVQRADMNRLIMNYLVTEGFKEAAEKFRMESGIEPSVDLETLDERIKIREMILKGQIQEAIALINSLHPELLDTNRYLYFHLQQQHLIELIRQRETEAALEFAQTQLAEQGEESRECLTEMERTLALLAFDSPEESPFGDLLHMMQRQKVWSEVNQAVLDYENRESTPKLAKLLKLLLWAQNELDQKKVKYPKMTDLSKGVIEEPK
muskelin CTLH-CRA domain (205–735 Δ248–625) (Q99PV3, form named): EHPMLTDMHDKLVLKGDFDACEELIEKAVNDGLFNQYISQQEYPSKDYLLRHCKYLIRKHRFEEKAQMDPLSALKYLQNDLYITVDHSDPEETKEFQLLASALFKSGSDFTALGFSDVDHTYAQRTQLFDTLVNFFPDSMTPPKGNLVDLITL

[2] = molecular target: T1, Wdr26 (102–641) (mouse); assay: ITC; direct titration of RanBP9/10-Twa1 complexes into muskelin or Wdr26 (e.g. 45 μM into 4 μM for RanBP10-Twa1 and muskelin); 25°C; isotherms too steep to fit; both purified
[3] = molecular target: T2, Maea CTLH-CRA domain (156-279) (mouse) (UniProt Q4VC33); assay: native gel or EMSA; native agarose gel electrophoresis (NAGE): CTLH-CRA domains at 200 μM incubated with the partner at least 30 min at room temperature; 0.8% agarose, 25 mM Tris, 200 mM glycine, 4°C; Coomassie; both purified
T2 sequence: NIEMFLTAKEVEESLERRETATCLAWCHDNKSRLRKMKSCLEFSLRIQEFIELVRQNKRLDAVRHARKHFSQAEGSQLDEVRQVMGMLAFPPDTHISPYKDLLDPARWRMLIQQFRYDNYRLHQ

[4] = molecular target: RanBP10 CTLH-CRA domain F543L, V556F (mouse) (UniProt Q6VN19); assay: ITC; muskelin CTLH-CRA (160 μM, syringe) titrated into RanBP10 or Twa1 CTLH-CRA variants (16 μM, cell); 25°C; 20 mM tricine pH 8.0, 500 mM NaCl, 1 mM TCEP; one-site model; both purified
[5] = molecular target: RanBP10 CTLH-CRA domain F543L, Y548F (mouse) (UniProt Q6VN19); assay: as above
[6] = molecular target: RanBP10 CTLH-CRA domain Y548F, V556F (mouse) (UniProt Q6VN19); assay: as above

In the case of “RanBP10 (57–648)-Twa1 (1–228) complex (mouse)”, the binding [1] is reported as “binds” and the binding [2] is reported as “binds”.
For “Twa1_45 mutant, CTLH-CRA domain (from UniProt Q9D7M1) (domain or fragment)”, the binding [3] was “no binding (tested: 200 μM)”.
“muskelin CTLH-CRA domain (205–735 Δ248–625) (from UniProt Q99PV3) (domain or fragment)” was tested, and the binding [4] was “binds”, the binding [5] was “binds” and the binding [6] was “binds”.

Source: PMC13061415
